Reference: article PMC4666396
Results are given in words; binding and its absence hold for the method and conditions named. Binding seen in cells or lysates may run through a third protein. A yes stands for co-enrichment or nearness to the bait. Other partners may have been found.

T1: Splicing factor 1 (SF1) (human (endogenous in HeLa)) (UniProt Q15637)
T1 sequence: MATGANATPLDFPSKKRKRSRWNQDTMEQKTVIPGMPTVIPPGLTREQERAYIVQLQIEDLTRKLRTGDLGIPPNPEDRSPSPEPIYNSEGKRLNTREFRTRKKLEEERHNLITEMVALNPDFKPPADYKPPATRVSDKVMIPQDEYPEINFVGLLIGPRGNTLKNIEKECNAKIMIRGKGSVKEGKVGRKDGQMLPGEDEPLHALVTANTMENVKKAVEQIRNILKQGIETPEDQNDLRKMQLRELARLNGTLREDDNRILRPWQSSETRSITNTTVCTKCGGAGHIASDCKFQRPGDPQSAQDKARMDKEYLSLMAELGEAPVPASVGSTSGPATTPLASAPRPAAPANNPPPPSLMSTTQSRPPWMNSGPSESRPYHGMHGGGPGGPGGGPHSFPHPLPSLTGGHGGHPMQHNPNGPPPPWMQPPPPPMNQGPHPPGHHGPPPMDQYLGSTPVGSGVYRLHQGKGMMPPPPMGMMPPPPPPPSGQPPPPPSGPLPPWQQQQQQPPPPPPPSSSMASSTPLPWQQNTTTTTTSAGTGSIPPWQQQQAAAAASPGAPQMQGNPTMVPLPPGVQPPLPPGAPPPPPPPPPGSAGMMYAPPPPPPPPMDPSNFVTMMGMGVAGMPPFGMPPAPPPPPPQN

B1: calcium homoeostasis endoplasmic reticulum protein (CHERP) (protein, UniProt Q8IWX8 1-916)
chain: MEMPLPPDDQELRNVIDKLAQFVARNGPEFEKMTMEKQKDNPKFSFLFGGEFYSYYKCKLALEQQQLICKQQTPELEPAATMPPLPQPPLAPAAPIPPAQGAPSMDELIQQSQWNLQQQEQHLLALRQEQVTAAVAHAVEQQMQKLLEETQLDMNEFDNLLQPIIDTCTKDAISAGKNWMFSNAKSPPHCELMAGHLRNRITADGAHFELRLHLIYLINDVLHHCQRKQARELLAALQKVVVPIYCTSFLAVEEDKQQKIARLLQLWEKNGYFDDSIIQQLQSPALGLGQYQATLINEYSSVVQPVQLAFQQQIQTLKTQHEEFVTSLAQQQQQQQQQQQQLQMPQMEAEVKATPPPPAPPPAPAPAPAIPPTTQPDDSKPPIQMPGSSEYEAPGGVQDPAAAGPRGPGPHDQIPPNKPPWFDQPHPVAPWGQQQPPEQPPYPHHQGGPPHCPPWNNSHEGMWGEQRGDPGWNGQRDAPWNNQPDAAWNSQFEGPWNSQHEQPPWGGGQREPPFRMQRPPHFRGPFPPHQQHPQFNQPPHPHNFNRFPPRFMQDDFPPRHPFERPPYPHRFDYPQGDFPAEMGPPHHHPGHRMPHPGINEHPPWAGPQHPDFGPPPHGFNGQPPHMRRQGPPHINHDDPSLVPNVPYFDLPAGLMAPLVKLEDHEYKPLDPKDIRLPPPMPPSERLLAAVEAFYSPPSHDRPRNSEGWEQNGLYEFFRAKMRARRRKGQEKRNSGPSRSRSRSKSRGRSSSRSNSRSSKSSGSYSRSRSRSCSRSYSRSRSRSRSRSRSSRSRSRSQSRSRSKSYSPGRRRRSRSRSPTPPSSAGLGSNSAPPIPDSRLGEENKGHQMLVKMGWSGSGGLGAKEQGIQDPIKGGDVRDKWDQYKGVGVALDDPYENYRRNKSYSFIARMKARDECK
B2: SF3b125 (protein, UniProt Q86XP3 1-938)
chain: MNWNKGGPGTKRGFGFGGFAISAGKKEEPKLPQQSHSAFGATSSSSGFGKSAPPQLPSFYKIGSKRANFDEENAYFEDEEEDSSNVDLPYIPAENSPTRQQFHSKPVDSDSDDDPLEAFMAEVEDQAARDMKRLEEKDKERKNVKGIRDDIEEEDDQEAYFRYMAENPTAGVVQEEEEDNLEYDSDGNPIAPTKKIIDPLPPIDHSEIDYPPFEKNFYNEHEEITNLTPQQLIDLRHKLNLRVSGAAPPRPGSSFAHFGFDEQLMHQIRKSEYTQPTPIQCQGVPVALSGRDMIGIAKTGSGKTAAFIWPMLIHIMDQKELEPGDGPIAVIVCPTRELCQQIHAECKRFGKAYNLRSVAVYGGGSMWEQAKALQEGAEIVVCTPGRLIDHVKKKATNLQRVSYLVFDEADRMFDMGFEYQVRSIASHVRPDRQTLLFSATFRKKIEKLARDILIDPIRVVQGDIGEANEDVTQIVEILHSGPSKWNWLTRRLVEFTSSGSVLLFVTKKANAEELANNLKQEGHNLGLLHGDMDQSERNKVISDFKKKDIPVLVATDVAARGLDIPSIKTVINYDVARDIDTHTHRIGRTGRAGEKGVAYTLLTPKDSNFAGDLVRNLEGANQHVSKELLDLAMQNAWFRKSRFKGGKGKKLNIGGGGLGYRERPGLGSENMDRGNNNVMSNYEAYKPSTGAMGDRLTAMKAAFQSQYKSHFVAASLSNQKAGSSAAGASGWTSAGSLNSVPTNSAQQGHNSPDSPVTSAAKGIPGFGNTGNISGAPVTYPSAGAQGVNNTASGNNSREGTGGSNGKRERYTENRGSSRHSHGETGNRHSDSPRHGDGGRHGDGYRHPESSSRHTDGHRHGENRHGGSAGRHGENRGANDGRNGESRKEAFNRESKMEPKMEPKVDSSKMDKVDSKTDKTADGFAVPEPPKRKKSRWDS
B3: SPF31 (protein, UniProt O75937 1-253)
chain: MAASGESGTSGGGGSTEEAFMTFYSEVKQIEKRDSVLTSKNQIERLTRPGSSYFNLNPFEVLQIDPEVTDEEIKKRFRQLSILVHPDKNQDDADRAQKAFEAVDKAYKLLLDQEQKKRALDVIQAGKEYVEHTVKERKKQLKKEGKPTIVEEDDPELFKQAVYKQTMKLFAELEIKRKEREAKEMHERKRQREEEIEAQEKAKREREWQKNFEESRDGRVDSWRNFQANTKGKKEKKNRTFLRPPKVKMEQRE
B4: U2AF35 (protein, UniProt Q01081 1-240)
chain: MAEYLASIFGTEKDKVNCSFYFKIGACRHGDRCSRLHNKPTFSQTIALLNIYRNPQNSSQSADGLRCAVSDVEMQEHYDEFFEEVFTEMEEKYGEVEEMNVCDNLGDHLVGNVYVKFRREEDAEKAVIDLNNRWFNGQPIHAELSPVTDFREACCRQYEMGECTRGGFCNFMHLKPISRELRRELYGRRRKKHRSRSRSRERRSRSRDRGRGGGGGGGGGGGGRERDRRRSRDRERSGRF

target: T1, Splicing factor 1 (SF1) (human (endogenous in HeLa)); assay: affinity purification with mass spectrometry; anti-SF1 on Protein G Sepharose; HeLa cell nuclear extract without or with 0.3 mg/ml RNase A; IP buffer 50 mM Tris-HCl pH 7.9, 100 mM NaCl, 0.05% NP-40, 0.5 mM DTT, 1 h 4°C; 1D PAGE, LC-MSMS; control mouse IgG

| Binder | binding |
| --- | --- |
| B1 | binds |
| B2 | binds |
| B3 | binds |
| B4 | binds |
